This is an account of results in article PMC12533803, “Rotenoids from the Roots of Vicia faba L. (Fabaceae): Structural Characterization, Cytotoxic Effects, and Molecular Docking” (Chemistry & Biodiversity, 2025).

The IC50 is the concentration that inhibits the measured activity by half.

In experiment [1] the test system is HCT‐116 (human colorectal carcinoma) cell line. Kind of experiment: MTT cytotoxicity assay, HCT-116. Format: cell-based. Conditions: 72 h incubation. As to the method: (§1) ATCC CCL 247), 501Mel (melanoma; RRID: CVCL_4633), and MCF‐7 (breast adenocarcinoma; ATCC HTB 22), along with non‐tumor cells line NIH/3T3 (mouse embryonic fibroblast; ATCC CRL 1658). […] Cells were kept at 37°C in a humidified atmosphere containing 5% CO2. […] At the end of the incubation period, the culture medium was replaced with a fresh medium containing MTT solution (0.5 mg/mL) and further incubated for 3 h. The MTT solution was then removed, and the formazan crystals formed were dissolved in 150 µL of DMSO. Absorbance for each well was measured at 570 nm, and then the values thereof were normalized in the percentage of viable cells based on that of the negative control.

Experiment [2] concerns MCF‐7 (breast adenocarcinoma) cell line. Kind of experiment: MTT cytotoxicity assay, MCF-7. Particulars: Homo sapiens, MCF7, 72 h incubation. Format: cell-based. As for the experimental part:
as §1
A general note: Tetrazolium assays rely on reduction of a dye to a coloured formazan, in cell work by metabolically active cells.

With `COc1cccc2c1C(=O)c1c(O)c3c(c(O)c1C2=O)C[C@@](O)(C(=O)CO)C[C@@H]3O[C@H]1C[C@H](N)[C@H](O)[C@H](C)O1` [Doxorubicin, reference compound], the IC50 came out at 50 nM in experiment [1] and 30 nM in experiment [2].
